Measurements taken from the supplement of paper PMC10849652.
Some of the results follow.

Chains of the proteins cited; added tags and fusions are not shown. Lines headed by an entry give the natural chain unless they say otherwise; changes in a name come on top.
UniProt Q9NWB6: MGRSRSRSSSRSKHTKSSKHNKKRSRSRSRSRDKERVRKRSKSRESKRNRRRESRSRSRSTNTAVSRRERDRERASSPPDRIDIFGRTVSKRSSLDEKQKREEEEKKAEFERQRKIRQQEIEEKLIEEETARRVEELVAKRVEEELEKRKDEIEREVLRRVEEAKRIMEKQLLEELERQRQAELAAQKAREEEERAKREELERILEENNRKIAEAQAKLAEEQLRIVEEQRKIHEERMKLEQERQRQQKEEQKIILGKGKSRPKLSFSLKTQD
UniProt O43182: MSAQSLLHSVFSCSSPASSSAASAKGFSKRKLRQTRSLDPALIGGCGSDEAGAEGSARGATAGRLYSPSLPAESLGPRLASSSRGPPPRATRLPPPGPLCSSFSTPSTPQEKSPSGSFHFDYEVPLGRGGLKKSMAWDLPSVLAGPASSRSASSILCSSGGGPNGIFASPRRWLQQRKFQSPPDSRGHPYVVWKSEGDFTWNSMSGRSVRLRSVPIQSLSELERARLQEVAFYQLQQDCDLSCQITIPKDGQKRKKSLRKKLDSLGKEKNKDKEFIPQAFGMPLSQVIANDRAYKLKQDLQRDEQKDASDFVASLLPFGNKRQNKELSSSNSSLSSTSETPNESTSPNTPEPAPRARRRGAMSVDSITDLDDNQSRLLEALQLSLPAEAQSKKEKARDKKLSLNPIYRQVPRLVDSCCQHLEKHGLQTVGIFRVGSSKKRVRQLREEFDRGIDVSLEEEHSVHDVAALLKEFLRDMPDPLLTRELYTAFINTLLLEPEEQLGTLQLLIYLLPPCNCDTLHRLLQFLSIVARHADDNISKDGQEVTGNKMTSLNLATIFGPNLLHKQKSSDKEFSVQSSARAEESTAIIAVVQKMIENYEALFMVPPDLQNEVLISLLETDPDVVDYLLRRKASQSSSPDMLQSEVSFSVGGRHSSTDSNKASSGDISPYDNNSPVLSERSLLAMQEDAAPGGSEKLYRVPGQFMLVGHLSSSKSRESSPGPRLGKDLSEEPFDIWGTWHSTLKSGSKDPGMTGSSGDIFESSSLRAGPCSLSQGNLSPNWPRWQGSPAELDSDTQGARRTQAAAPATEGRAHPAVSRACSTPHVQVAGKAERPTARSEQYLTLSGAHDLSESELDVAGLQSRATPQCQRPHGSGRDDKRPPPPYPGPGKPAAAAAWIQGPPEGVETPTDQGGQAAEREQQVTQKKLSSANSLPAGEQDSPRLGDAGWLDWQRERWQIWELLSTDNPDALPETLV
UniProt Q01484: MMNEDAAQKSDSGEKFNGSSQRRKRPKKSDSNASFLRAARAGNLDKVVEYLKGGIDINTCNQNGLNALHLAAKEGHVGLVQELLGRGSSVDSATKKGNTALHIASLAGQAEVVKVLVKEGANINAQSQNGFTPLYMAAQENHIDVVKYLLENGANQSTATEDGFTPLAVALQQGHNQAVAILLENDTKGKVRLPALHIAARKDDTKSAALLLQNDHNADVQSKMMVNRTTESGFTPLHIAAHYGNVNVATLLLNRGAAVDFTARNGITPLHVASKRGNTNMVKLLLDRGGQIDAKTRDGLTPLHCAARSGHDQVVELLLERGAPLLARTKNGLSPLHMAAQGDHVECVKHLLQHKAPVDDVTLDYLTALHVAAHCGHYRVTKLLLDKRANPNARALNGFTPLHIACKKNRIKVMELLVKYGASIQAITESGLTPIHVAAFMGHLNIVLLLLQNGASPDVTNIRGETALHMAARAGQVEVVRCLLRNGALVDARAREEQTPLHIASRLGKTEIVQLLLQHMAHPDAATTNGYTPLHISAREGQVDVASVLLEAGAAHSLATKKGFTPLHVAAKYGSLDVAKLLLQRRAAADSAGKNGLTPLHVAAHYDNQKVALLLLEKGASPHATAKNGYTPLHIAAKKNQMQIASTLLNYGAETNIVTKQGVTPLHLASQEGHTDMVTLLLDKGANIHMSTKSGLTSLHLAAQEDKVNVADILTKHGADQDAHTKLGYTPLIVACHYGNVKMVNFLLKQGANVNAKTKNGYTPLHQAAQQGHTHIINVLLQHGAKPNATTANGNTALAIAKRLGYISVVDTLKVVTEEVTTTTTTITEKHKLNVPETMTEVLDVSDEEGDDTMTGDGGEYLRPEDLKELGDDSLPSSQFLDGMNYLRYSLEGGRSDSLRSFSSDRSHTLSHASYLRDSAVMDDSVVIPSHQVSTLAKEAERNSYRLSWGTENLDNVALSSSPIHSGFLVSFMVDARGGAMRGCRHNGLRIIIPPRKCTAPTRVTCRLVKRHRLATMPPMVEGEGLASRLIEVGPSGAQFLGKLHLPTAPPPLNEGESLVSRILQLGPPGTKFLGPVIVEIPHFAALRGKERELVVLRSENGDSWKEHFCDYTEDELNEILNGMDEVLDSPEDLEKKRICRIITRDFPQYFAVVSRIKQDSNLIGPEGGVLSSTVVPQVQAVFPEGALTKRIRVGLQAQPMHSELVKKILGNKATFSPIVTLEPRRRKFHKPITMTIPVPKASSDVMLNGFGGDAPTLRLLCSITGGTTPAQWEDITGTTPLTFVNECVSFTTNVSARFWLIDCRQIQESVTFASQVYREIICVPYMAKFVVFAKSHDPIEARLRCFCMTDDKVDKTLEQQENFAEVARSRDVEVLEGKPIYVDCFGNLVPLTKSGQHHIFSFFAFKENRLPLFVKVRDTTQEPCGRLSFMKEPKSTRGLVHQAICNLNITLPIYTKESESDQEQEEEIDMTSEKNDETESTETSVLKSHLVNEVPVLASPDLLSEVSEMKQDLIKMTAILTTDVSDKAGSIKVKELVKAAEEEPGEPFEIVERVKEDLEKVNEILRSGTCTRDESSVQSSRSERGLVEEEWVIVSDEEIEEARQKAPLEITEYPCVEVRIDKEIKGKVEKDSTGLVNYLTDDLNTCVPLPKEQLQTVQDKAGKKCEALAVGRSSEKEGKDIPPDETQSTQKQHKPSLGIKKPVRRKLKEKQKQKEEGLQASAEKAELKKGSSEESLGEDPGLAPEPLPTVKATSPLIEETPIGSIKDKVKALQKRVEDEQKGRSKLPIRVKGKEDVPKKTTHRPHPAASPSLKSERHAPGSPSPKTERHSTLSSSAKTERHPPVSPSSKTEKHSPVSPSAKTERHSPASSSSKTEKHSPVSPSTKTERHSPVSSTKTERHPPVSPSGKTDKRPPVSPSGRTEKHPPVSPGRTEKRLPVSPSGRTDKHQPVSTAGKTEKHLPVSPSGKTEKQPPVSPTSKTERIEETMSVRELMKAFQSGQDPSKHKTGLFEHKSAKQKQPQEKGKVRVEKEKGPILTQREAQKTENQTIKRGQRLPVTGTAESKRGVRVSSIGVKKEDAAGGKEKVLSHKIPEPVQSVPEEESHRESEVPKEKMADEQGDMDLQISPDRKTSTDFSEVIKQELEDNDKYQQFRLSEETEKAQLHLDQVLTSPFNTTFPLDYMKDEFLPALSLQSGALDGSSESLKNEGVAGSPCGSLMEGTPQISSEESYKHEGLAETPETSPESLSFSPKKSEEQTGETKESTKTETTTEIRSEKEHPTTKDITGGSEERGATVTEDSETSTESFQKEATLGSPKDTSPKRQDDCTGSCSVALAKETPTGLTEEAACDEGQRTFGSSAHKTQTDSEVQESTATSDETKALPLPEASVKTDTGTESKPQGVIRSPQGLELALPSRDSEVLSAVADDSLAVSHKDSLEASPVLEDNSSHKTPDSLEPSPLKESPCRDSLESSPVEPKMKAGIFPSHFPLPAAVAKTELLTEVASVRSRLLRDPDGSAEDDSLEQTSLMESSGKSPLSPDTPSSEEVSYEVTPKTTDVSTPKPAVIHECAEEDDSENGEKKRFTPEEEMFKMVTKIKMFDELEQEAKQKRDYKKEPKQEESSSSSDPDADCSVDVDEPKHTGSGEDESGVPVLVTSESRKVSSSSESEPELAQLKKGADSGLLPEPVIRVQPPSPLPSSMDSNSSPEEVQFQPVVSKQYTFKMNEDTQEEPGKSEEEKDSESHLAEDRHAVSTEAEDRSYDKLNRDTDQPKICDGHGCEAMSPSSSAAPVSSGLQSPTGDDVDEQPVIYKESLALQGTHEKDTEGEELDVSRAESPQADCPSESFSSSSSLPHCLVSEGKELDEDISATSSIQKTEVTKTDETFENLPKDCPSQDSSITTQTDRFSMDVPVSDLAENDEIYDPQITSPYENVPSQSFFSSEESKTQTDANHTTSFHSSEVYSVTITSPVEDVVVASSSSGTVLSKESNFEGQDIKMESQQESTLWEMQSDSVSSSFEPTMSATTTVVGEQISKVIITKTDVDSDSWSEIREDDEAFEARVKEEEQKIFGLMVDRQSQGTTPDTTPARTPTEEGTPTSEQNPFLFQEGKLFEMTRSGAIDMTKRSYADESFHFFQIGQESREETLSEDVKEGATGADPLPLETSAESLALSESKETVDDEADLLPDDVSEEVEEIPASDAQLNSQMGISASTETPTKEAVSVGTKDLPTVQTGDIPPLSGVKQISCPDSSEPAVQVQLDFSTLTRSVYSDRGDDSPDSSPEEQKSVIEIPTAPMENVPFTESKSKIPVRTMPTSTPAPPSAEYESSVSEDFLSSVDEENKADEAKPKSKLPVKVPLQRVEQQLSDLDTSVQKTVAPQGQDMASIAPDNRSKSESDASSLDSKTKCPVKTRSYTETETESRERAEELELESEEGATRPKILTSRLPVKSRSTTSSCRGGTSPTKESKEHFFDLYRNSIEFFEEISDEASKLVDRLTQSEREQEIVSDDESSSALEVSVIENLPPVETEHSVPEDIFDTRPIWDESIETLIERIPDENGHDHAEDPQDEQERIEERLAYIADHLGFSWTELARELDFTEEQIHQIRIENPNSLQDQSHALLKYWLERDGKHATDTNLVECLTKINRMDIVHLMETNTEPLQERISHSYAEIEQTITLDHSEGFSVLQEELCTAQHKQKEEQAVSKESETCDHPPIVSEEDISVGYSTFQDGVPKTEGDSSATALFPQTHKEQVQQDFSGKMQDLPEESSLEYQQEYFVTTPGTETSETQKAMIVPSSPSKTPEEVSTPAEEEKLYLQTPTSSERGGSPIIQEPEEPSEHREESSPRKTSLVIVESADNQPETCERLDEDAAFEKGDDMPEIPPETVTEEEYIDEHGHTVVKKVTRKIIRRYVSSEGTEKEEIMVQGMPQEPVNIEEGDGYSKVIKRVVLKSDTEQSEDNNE
UniProt P08758: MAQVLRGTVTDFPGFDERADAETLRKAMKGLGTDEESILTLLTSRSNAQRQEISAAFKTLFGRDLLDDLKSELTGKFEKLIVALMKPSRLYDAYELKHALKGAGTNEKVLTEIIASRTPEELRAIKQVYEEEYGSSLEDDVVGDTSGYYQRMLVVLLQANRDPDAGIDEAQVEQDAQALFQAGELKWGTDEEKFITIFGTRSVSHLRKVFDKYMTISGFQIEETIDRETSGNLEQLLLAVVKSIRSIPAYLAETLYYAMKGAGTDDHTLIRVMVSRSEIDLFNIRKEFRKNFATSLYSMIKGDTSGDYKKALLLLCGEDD
UniProt Q9HC16: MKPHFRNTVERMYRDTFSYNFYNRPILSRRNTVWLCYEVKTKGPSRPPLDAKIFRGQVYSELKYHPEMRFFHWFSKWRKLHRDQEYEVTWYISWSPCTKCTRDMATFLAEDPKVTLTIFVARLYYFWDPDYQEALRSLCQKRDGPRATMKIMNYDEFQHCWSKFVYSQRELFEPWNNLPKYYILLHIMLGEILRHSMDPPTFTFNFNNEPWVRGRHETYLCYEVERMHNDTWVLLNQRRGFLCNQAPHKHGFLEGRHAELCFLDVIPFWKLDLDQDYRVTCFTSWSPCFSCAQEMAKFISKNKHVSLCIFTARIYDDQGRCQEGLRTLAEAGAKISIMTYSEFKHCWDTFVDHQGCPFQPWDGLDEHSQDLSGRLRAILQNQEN
UniProt P53677: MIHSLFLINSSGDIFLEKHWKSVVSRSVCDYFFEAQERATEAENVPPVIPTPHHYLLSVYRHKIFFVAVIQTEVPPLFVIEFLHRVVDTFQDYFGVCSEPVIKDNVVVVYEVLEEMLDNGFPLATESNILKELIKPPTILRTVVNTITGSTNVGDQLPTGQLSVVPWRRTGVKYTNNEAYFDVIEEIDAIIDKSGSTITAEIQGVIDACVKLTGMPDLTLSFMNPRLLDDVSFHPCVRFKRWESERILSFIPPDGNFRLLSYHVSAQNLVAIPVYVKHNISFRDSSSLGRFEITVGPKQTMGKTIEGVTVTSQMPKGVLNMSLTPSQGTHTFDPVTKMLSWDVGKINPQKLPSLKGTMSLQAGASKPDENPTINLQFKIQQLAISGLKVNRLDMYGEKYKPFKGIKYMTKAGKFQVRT

Assays:
Assay in all cases: log2 fold change, soluble protein after heating vs DMSO (PISA); higher = thermal stabilisation; K562 cells, 10 uM, 30 min; active = over 0.2 and 3.5 SD of the protein, either way, in both replicates (recomputed)
[1] = compound: CS(=O)(=O)c1ccc(-c2cnc(N)c(C(=O)Nc3ccccc3)n2)cc1
Procedure, shortened: (§1)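 K562 cells at 2×10^6 cells/mL were treated for 30 min with 10 μM compound, and aliquots were heated for 3 min over 48°C-58°C before pooling. Extraction used PBS with 0.5% NP-40 at 4°C, and soluble protein was the supernatant after 21,000xg for 90 min, measured by TMTpro 16plex LC-MS/MS with channel sums equalised. Thermal stability values, relative to control samples and from duplicates, are log2 fold changes.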

[2] = compound: C[C@@H](Oc1cc(-c2cnn(C3CCNCC3)c2)cnc1N)c1c(Cl)ccc(F)c1Cl [crizotinib]
Procedure, shortened: as §1

[3] = compound: C[C@@H]1COCCN1C2=NC(=NC(=C2)C3(CC3)S(=O)(=O)C)C4=C5C=CNC5=CC=C4
Procedure, shortened: as §1

[4] = compound: C[C@H](C1=CC=C(C=C1)C(=O)NC2=C3C=CNC3=NC=C2)N
Procedure, shortened: as §1

[5] = compound: Cc1cc(Nc2cc(CN3CCOCC3)c3nc(C)c(Cc4ccc(Cl)cc4F)n3n2)n[nH]1 [gandotinib]
Procedure, shortened: as §1

[6] = compound: Cc1cc(SCc2sc(-c3ccc(C(F)(F)F)cc3)nc2C)ccc1OCC(=O)O
Procedure, shortened: as §1

[7] = compound: Cc1ccc(-n2nc(C(C)(C)C)cc2NC(=O)Nc2ccc(OCCN3CCOCC3)c3ccccc23)cc1 [doramapimod]
Procedure, shortened: as §1

[8] = compound: Cc1ccc(C(=O)N(CCCN)[C@@H](c2nc3cc(Cl)ccc3c(=O)n2Cc2ccccc2)C(C)C)cc1 [ispinesib]
Procedure, shortened: as §1

[9] = compound: Cc1ccc(NC(=O)c2ccc(CN3CC[C@H](N(C)C)C3)c(C(F)(F)F)c2)cc1Nc1nccc(-c2cncnc2)n1 [bafetinib]
Procedure, shortened: as §1

[10] = compound: Cc1cccc(CC(=O)N2CCc3c2ccc(-c2cn(C)c4ncnc(N)c24)c3F)n1
Procedure, shortened: as §1

[11] = compound: Cc1cn(-c2cc(NC(=O)c3ccc(C)c(Nc4nccc(-c5cccnc5)n4)c3)cc(C(F)(F)F)c2)cn1 [nilotinib]
Procedure, shortened: as §1

[12] = compound: Cc1nc(Nc2n[nH]c3c2CN(C(=O)N[C@H](CN(C)C)c2ccccc2)C3(C)C)c2sccc2n1
Procedure, shortened: as §1

[13] = compound: Cc1nc(Nc2ncc(C(=O)Nc3c(C)cccc3Cl)s2)cc(N2CCN(CCO)CC2)n1 [dasatinib]
Procedure, shortened: as §1

[14] = compound: Cc1ncc(-c2ccnc(Nc3ccc(S(C)(=O)=O)cc3)n2)n1C(C)C
Procedure, shortened: as §1

[15] = compound: Cn1cc(-c2ccc3c(c2)CCN3C(=O)Cc2cccc(C(F)(F)F)c2)c2c(N)ncnc21
Procedure, shortened: as §1

[16] = compound: Cn1cc(-c2ccc3nnc(C(F)(F)c4ccc5ncccc5c4)n3n2)cn1
Procedure, shortened: as §1

[17] = compound: Cn1cncc1[C@@](N)(c1ccc(Cl)cc1)c1ccc2c(c1)c(-c1cccc(Cl)c1)cc(=O)n2C [tipifarnib]
Procedure, shortened: as §1

[18] = compound: FC(F)(F)c1ccc(/C=C/c2nc(COc3ccc(CCCCn4ccnn4)cc3)co2)cc1 [mubritinib]
Procedure, shortened: as §1

[19] = compound: C[C@H](Nc1ncnc2nc[nH]c12)c1cc2cccc(Cl)c2c(=O)n1-c1ccccc1 [duvelisib]
Procedure, shortened: as §1

[20] = compound: Cc1cc(Nc2cc(N3CCN(C)CC3)nc(Sc3ccc(NC(=O)C4CC4)cc3)n2)n[nH]1 [tozasertib]
Procedure, shortened: as §1

| Target | log2 fold change [1] | log2 fold change [2] | log2 fold change [3] | log2 fold change [4] | log2 fold change [5] | log2 fold change [6] | log2 fold change [7] | log2 fold change [8] | log2 fold change [9] | log2 fold change [10] | log2 fold change [11] | log2 fold change [12] | log2 fold change [13] | log2 fold change [14] | log2 fold change [15] | log2 fold change [16] | log2 fold change [17] | log2 fold change [18] | log2 fold change [19] | log2 fold change [20] |
| --- | --- | --- | --- | --- | --- | --- | --- | --- | --- | --- | --- | --- | --- | --- | --- | --- | --- | --- | --- | --- |
| ARGLU1 (UniProt Q9NWB6) | inactive: -0.038 | inactive: -0.008 | inactive: -0.039 | inactive: -0.344 | inactive: 0.212 | inactive: -0.027 | inactive: 0.047 | inactive: 0.242 | inactive: 0.165 | inactive: -0.058 | inactive: 0.184 | active: -1.13 | inactive: 0.146 | inactive: -0.027 | inactive: -0.046 | inactive: -0.031 | inactive: 0.043 | inactive: -0.057 |  |  |
| ARHGEF18 (UniProt Q6ZSZ5) | inactive: -0.02 |  | inactive: 0.067 | inactive: 0.17 | inactive: 0.055 | inactive: -0.034 |  | inactive: -0.07 | inactive: 0.132 | inactive: -0.16 | inactive: -0.373 | inactive: 0.181 | inactive: 0.057 | inactive: -0.163 | inactive: -0.124 | inactive: -0.039 | inactive: 0.034 | inactive: -0.213 | inactive: 0.051 | inactive: 0.071 |
| ARHGAP1 (UniProt Q07960) | inactive: 0.011 | inactive: 0.154 | inactive: 0.038 | inactive: -0.003 | inactive: 0.011 | inactive: 0 | inactive: -0.039 | active: 0.235 | inactive: 0.001 | inactive: 0.016 | inactive: -0.019 | inactive: -0.056 | inactive: -0.101 | inactive: 0.007 | inactive: -0.025 | inactive: -0.008 | inactive: -0.069 | inactive: 0.01 |  |  |
| ARHGAP6 (UniProt O43182) | inactive: 0.002 | inactive: -0.002 | inactive: -0.071 |  |  | inactive: 0.049 | inactive: 0.082 | inactive: -0.293 |  |  | inactive: 0.122 | inactive: -0.226 | inactive: -0.19 | inactive: 0.254 |  | inactive: -0.2 |  | inactive: -0.073 | inactive: -0.008 | inactive: 0.052 |
| AP4B1 (UniProt Q9Y6B7) | inactive: -0.228 | inactive: -0.067 |  | inactive: -0.046 | inactive: 0.134 | inactive: 0.113 | inactive: -0.053 |  | inactive: -0.043 | inactive: 0.085 | inactive: 0.149 | inactive: -0.04 | inactive: -0.017 | inactive: 0.096 | inactive: -0.047 |  |  |  | inactive: 0.033 | inactive: 0.151 |
| ANKZF1 (UniProt Q9H8Y5) | inactive: 0.031 | inactive: -0.037 | inactive: -0.135 | inactive: 0.174 | inactive: 0.007 | inactive: -0.068 | inactive: -0.059 | inactive: -0.349 | inactive: 0.104 | inactive: -0.047 | inactive: -0.151 | inactive: -0.29 | inactive: -0.04 | inactive: 0.018 | inactive: -0.005 | inactive: -0.126 | inactive: 0.026 | inactive: -0.074 |  |  |
| ARFGAP1 (UniProt Q8N6T3) | inactive: 0.009 | inactive: 0.094 | inactive: 0.048 | inactive: -0.016 | inactive: -0.038 | inactive: 0.047 | inactive: -0.13 | inactive: 0.008 | inactive: -0.041 | inactive: -0.009 | inactive: -0.015 | inactive: -0.193 | inactive: -0.097 | inactive: -0.004 | inactive: -0.003 | inactive: 0.008 | inactive: -0.036 | inactive: -0.022 |  |  |
| ARHGEF12 (UniProt Q9NZN5) | inactive: 0.174 | inactive: -0.134 | inactive: -0.111 |  |  | inactive: 0.008 | inactive: 0.026 | inactive: -0.094 | inactive: 0.074 |  |  |  | inactive: -0.115 |  |  | inactive: -0.106 | inactive: -0.067 | inactive: -0.156 | inactive: -0.09 | inactive: 0.121 |
| ARFIP1 (UniProt P53367) | inactive: 0.833 | inactive: -0.309 | inactive: 0.026 | inactive: -0.061 | inactive: -0.223 | inactive: 0.014 | inactive: 0 | inactive: -0.232 | inactive: -0.198 | inactive: 0.077 | inactive: -0.177 | inactive: -0.148 | inactive: -0.113 | inactive: 0.05 | inactive: 0.069 | active: 0.461 | inactive: -0.115 | inactive: -0.054 |  |  |
| ANK2 (UniProt Q01484) | inactive: 0.066 | inactive: 0.062 |  | inactive: -0.005 | inactive: -0.092 | inactive: 0.089 | inactive: 0.055 | inactive: -0.188 | inactive: -0.281 | inactive: -0.034 | inactive: -0.265 | inactive: 0.041 | inactive: -0.277 | inactive: -0.042 | inactive: 0.012 | inactive: 0.01 | inactive: 0.034 | inactive: -0.141 |  |  |
| APAF1 (UniProt O14727) | inactive: -0.045 | inactive: 0.045 | inactive: 0.115 | inactive: -0.061 | inactive: 0.047 | inactive: 0.119 | inactive: 0.006 | inactive: -0.181 |  | inactive: 0.042 | inactive: -0.058 | inactive: -0.015 | inactive: -0.121 | inactive: -0.268 | inactive: -0.122 | inactive: -0.016 | inactive: -0.152 | inactive: -0.032 |  |  |
| APLP2 (UniProt Q06481) | inactive: 0 | inactive: 0.032 | inactive: -0.012 | inactive: -0.035 | inactive: 0.117 | inactive: -0.049 | inactive: 0.049 | inactive: 0.16 | inactive: 0.054 | inactive: -0.063 | inactive: 0.156 | inactive: -0.144 | inactive: 0.118 | inactive: 0.052 | inactive: -0.007 | inactive: -0.164 | inactive: -0.01 | inactive: -0.011 |  |  |
| ANKRD29 (UniProt Q8N6D5) | inactive: 0.125 | inactive: 0.019 | inactive: 0.042 | inactive: -0.043 | inactive: 0.185 | inactive: 0.017 | inactive: 0.097 | inactive: -0.055 | inactive: 0.063 | inactive: -0.027 | inactive: -0.09 | inactive: -0.057 | inactive: -0.002 | inactive: 0.053 | inactive: 0.22 | inactive: 0.133 | inactive: -0.223 | inactive: 0.083 |  |  |
| AP2B1 isoform 2 (UniProt P63010) | inactive: 0.022 | inactive: -0.029 | inactive: -0.005 | inactive: -0.161 | inactive: 0.016 | inactive: 0.007 | inactive: -0.006 | inactive: 0.014 | inactive: 0.024 | inactive: -0.01 | inactive: -0.019 | inactive: 0.019 | inactive: 0.035 | inactive: -0.032 | inactive: -0.029 | inactive: 0.004 | inactive: -0.014 | inactive: -0.01 |  |  |
| ANKS1A (UniProt Q92625) | inactive: 0.138 | inactive: -0.168 | inactive: 0.11 | inactive: 0.306 |  |  | inactive: 0.416 | inactive: -0.406 | inactive: -0.342 |  |  |  |  |  | inactive: 0.004 | inactive: -0.239 |  |  |  | inactive: 0.092 |
| APOH (UniProt P02749) | inactive: -0.22 | inactive: -0.179 |  | inactive: -0.071 | inactive: -0.747 | inactive: 0.458 | inactive: -0.108 | inactive: -0.595 | active: -1.07 | inactive: 0.083 | inactive: 0 | inactive: 0.031 | inactive: -0.281 | inactive: 0.392 | inactive: 0.145 | inactive: -0.167 | inactive: 0.085 | inactive: -0.346 |  |  |
| AP2A1 (UniProt O95782) | inactive: -0.011 | inactive: -0.127 | inactive: -0.006 | active: -0.237 | inactive: 0.01 | inactive: 0.02 | inactive: 0.039 | inactive: 0.081 | inactive: 0.052 | inactive: 0.024 | inactive: -0.008 | inactive: -0.008 | inactive: 0.045 | inactive: -0.079 | inactive: -0.007 | inactive: -0.066 | inactive: -0.051 | inactive: -0.011 |  |  |
| ANXA5 (UniProt P08758) | inactive: 0.03 | inactive: 0.045 | inactive: 0.108 | inactive: -0.002 | inactive: -0.083 | inactive: 0.052 | inactive: -0.059 | inactive: 0.006 | inactive: 0.019 | inactive: 0.058 | inactive: -0.015 | inactive: -0.052 | inactive: -0.079 | inactive: 0.006 | inactive: 0.017 | inactive: 0.025 | inactive: -0.061 | inactive: 0.009 |  |  |
| APOBEC3G (UniProt Q9HC16) | inactive: -0.065 | inactive: 0.059 | inactive: -0.165 |  |  | inactive: 0.102 | inactive: 0.023 | inactive: -0.01 | inactive: -0.016 |  | inactive: 0.028 | inactive: 0.079 | inactive: 0.075 | inactive: 0.028 |  | inactive: -0.042 | inactive: -0.012 | inactive: 0.03 |  |  |
| AP3M2 (UniProt P53677) |  | inactive: -0.044 |  | inactive: 0.131 |  |  | inactive: 0.074 |  | inactive: -0.158 |  |  |  |  |  | inactive: -0.02 |  |  | inactive: 0.036 |  |  |

As a short view, part of the list above:

| Target | log2 fold change [1] | log2 fold change [2] | log2 fold change [3] | log2 fold change [4] | log2 fold change [5] | log2 fold change [6] | log2 fold change [7] | log2 fold change [8] | log2 fold change [9] | log2 fold change [10] | log2 fold change [11] | log2 fold change [12] | log2 fold change [13] | log2 fold change [14] | log2 fold change [15] | log2 fold change [16] | log2 fold change [17] | log2 fold change [18] | log2 fold change [19] | log2 fold change [20] |
| --- | --- | --- | --- | --- | --- | --- | --- | --- | --- | --- | --- | --- | --- | --- | --- | --- | --- | --- | --- | --- |
| APOH (UniProt P02749) | inactive: -0.22 | inactive: -0.179 |  | inactive: -0.071 | inactive: -0.747 | inactive: 0.458 | inactive: -0.108 | inactive: -0.595 | active: -1.07 | inactive: 0.083 | inactive: 0 | inactive: 0.031 | inactive: -0.281 | inactive: 0.392 | inactive: 0.145 | inactive: -0.167 | inactive: 0.085 | inactive: -0.346 |  |  |
| AP2A1 (UniProt O95782) | inactive: -0.011 | inactive: -0.127 | inactive: -0.006 | active: -0.237 | inactive: 0.01 | inactive: 0.02 | inactive: 0.039 | inactive: 0.081 | inactive: 0.052 | inactive: 0.024 | inactive: -0.008 | inactive: -0.008 | inactive: 0.045 | inactive: -0.079 | inactive: -0.007 | inactive: -0.066 | inactive: -0.051 | inactive: -0.011 |  |  |
